From patent US12582617B2, “Methods for treating cancer” (RADIUS PHARMACEUTICALS, INC., priority 2015, dated 2026)
Where a name gives a salt, the structure may show the parent alone. For some assays here: For at least one compound, name, drawing or mass did not settle the structure. Some of these results come from one statement about several compounds together.

Assays:
uterine tissue = test: Assessment of uterotropic activity in immature rats (uterine wet weight, epithelial thickness, C3 gene expression); assay type: in vivo, Sprague-Dawley rats
Protocol: Twenty-four hours after the final dose, all animals were euthanized by carbon dioxide inhalation. Body weights and wet uterine weights were recorded for each animal. […] Fresh uterine tissue from each rat was fixed in 4% paraformaldehyde, dehydrated with ethanol, and embedded into JB4 plastic resin. […] Thickness of the endometrial epithelium was measured using a Zeiss Axioskop 40 microscope using the Spot Advanced program; the mean of 9 measurements per specimen was calculated. […] RNA was quantified, and equal amounts were reverse-transcribed using the High Capacity cDNA Archive Kit (Applied Biosystems, Foster City, CA). Quantitative PCR was performed using the ABI Prism 7300 System (Applied Biosystems). […] Thermal cycling conditions comprised an initial denaturation step at 95° C. for 10 min, followed by 40 cycles at 95° C. for 15 second and 60° C. for 1 minute. Relative gene expression was determined by normalizing each sample to the endogenous control (18S) and comparing with a calibrator (vehicle). Relative gene expression was determined using the following equation: 2-ΔΔCt (where Ct=cycle threshold or the cycle number at which PCR product was first detected, ΔCt=normalized sample value, and ΔΔCt=normalized difference between dosed subjects and the vehicle). Five replicate gene expression determinations were conducted for each dose, within each study.

[1] = Bone mineral density in ovariectomized rats (dual emission x-ray absorptiometry); assay type: in vivo, Sprague-Dawley rats; conditions: OVX rats, 4 weeks; E2 0.01 mg/kg, RAD1901 0.1 to 3 mg/kg
Protocol: As a model of postmenopausal bone loss, ovariectomy was performed on anesthetized adult female Sprague-Dawley rats, with sham surgery as a control. […] Animals in the sham surgery group were vehicle treated. All animals were euthanized by carbon dioxide inhalation 24 hours after the final dose. Bone mineral density was assessed at baseline and again after 4 weeks of treatment using PIXImus dual emission x-ray absorptiometry.

[2] = system: PDx models with patient derived breast cancer tumor; test: Tumor growth inhibition (TGI) in patient-derived xenograft (PDx) models, FIG. 1; assay type: in vivo, athymic nude mice; conditions: xenograft models wherein RAD1901 alone achieved a TGI of 26-64%

Structure (SMILES): C[C@]12CC[C@@H]3c4ccc(O)cc4CC[C@H]3[C@@H]1CC[C@@H]2O [E2, estradiol, reference compound]
- uterine wet weight compared to vehicle (in words) (uterine tissue; 3 days, E2 0.01 mg/kg, raloxifene 3 mg/kg, tamoxifen 1 mg/kg, RAD1901 0.3 to 100 mg/kg): significant increases in uterine wet weight
- endometrial epithelial thickness (in words) (uterine tissue; E2 0.01 and 0.3 mg/kg, tamoxifen 1 mg/kg, raloxifene 3 mg/kg, RAD1901 up to 100 mg/kg): statistically significant increase in endometrial epithelial thickness
- C3 gene expression (in words) (uterine tissue; RAD1901 0.3 to 100 mg/kg, E2, tamoxifen, raloxifene): significantly increased the expression of the estrogen-regulated complement gene, C3
- ovariectomy-induced bone loss (in words) [1]: prevention of bone loss in both the femur and spine

Structure (SMILES): CCNCCc1ccc(CN(CC)c2cc(OC)ccc2[C@@H]2CCc3cc(O)ccc3C2)cc1 [RAD1901, (6R)-6-(2-(N-(4-(2-(ethylamino)ethyl)benzyl)-N-ethylamino)-4-methoxyphenyl)-5,6,7,8-tetrahydronaphthalen-2-ol dihydrochloride]
- TGI [2]: 26-64%
